Assay results published in PubChem BioAssay AID651903 (Broad Institute, 2012).
Out of some 22,000 compounds screened, about 1,100 (5%) were called active. The inconclusive results got no clear call from the source; some entries with a clear call stand among them for comparison. Rule as the data show it: active = activity score above about 55%; inconclusive = no clear call, values can overlap the other calls; inactive = below that.

Assay: inhibitors of intracellular Trypanosoma cruzi, primary screen, cell-based, plate reader, single point, set 2 (AID 651903);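 also: parasites and compound incubated about four days before reading; 0% = median of neutral control wells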
Conditions: intracellular Trypanosoma cruzi in host cells, at 5.01 µM, active compounds read high

SMILES	activity score (inhibition)
C[C@@H]1CN([C@@H](C)CO)C(=O)c2cccc(NC(=O)Nc3ccc(C(F)(F)F)cc3)c2O[C@H]1CN(C)Cc1ccc(C(F)(F)F)cc1	inconclusive: 56.4%
CC(C)NC(=O)N(C)C[C@H]1Oc2c(NC(=O)c3cnccn3)cccc2C(=O)N([C@H](C)CO)C[C@H]1C	inconclusive: 55.4%
C[C@H]1CN([C@@H](C)CO)C(=O)Cc2cc(NC(=O)C3CC3)ccc2O[C@H]1CN(C)Cc1ccc(C(=O)Nc2ccccc2N)cc1	inconclusive: 58.5%
C[C@@H]1CCCCO[C@H](CN(C)Cc2ccc(Cl)c(Cl)c2)[C@@H](C)CN([C@H](C)CO)C(=O)c2cc(NS(=O)(=O)c3ccccc3)ccc2O1	inconclusive: 62.6%
C[C@@H]1CN([C@H](C)CO)C(=O)c2cccc(NC(=O)Nc3cccc4ccccc34)c2O[C@@H]1CN(C)C(=O)Nc1ccc(F)cc1	inconclusive: 55.4%
C[C@@H]1CN([C@H](C)CO)C(=O)Cc2cc(NC(=O)Cc3ccccc3)ccc2O[C@H]1CN(C)Cc1ccc(-c2ccccc2)cc1	active: 65.2%
C[C@H](CO)N1C[C@H](C)[C@H](CN(C)Cc2ccc(C(F)(F)F)cc2)Oc2c(NC(=O)Nc3ccc(C(F)(F)F)cc3)cccc2C1=O	inconclusive: 70.9%
C[C@H](CO)N1C[C@H](C)[C@@H](CN(C)C(=O)Nc2ccc(C(F)(F)F)cc2)Oc2ccc(NC(=O)Nc3ccc(C(F)(F)F)cc3)cc2C1=O	inconclusive: 57%
COc1ccc(S(=O)(=O)Nc2ccc3c(c2)C(=O)N([C@H](C)CO)C[C@H](C)[C@@H](CN(C)Cc2ccc(C(F)(F)F)cc2)OCCCC[C@@H](C)O3)cc1	inconclusive: 55.8%
C[C@H]1CN([C@@H](C)CO)C(=O)c2cccc(NC(=O)c3cnccn3)c2O[C@@H]1CN(C)Cc1ccc(C(=O)Nc2ccccc2N)cc1	inconclusive: 59.4%
C[C@@H]1CN([C@@H](C)CO)C(=O)Cc2cc(NC(=O)Nc3ccc(C(F)(F)F)cc3)ccc2O[C@@H]1CN(C)C(=O)Nc1cccc2ccccc12	inconclusive: 58.4%
C[C@@H]1CN([C@@H](C)CO)C(=O)c2cccc(NC(=O)Nc3ccc(C(F)(F)F)cc3)c2O[C@H]1CN(C)Cc1ccc(C(=O)Nc2ccccc2N)cc1	inconclusive: 56.6%
Cc1noc(C)c1NC(=O)N(C)C[C@H]1Oc2c(NC(=O)c3ccncc3)cccc2C(=O)N([C@@H](C)CO)C[C@H]1C	inactive: -20.4%
C[C@H](CO)N1C[C@H](C)[C@H](CN(C)S(=O)(=O)c2cccs2)Oc2c(NS(=O)(=O)c3ccccc3)cccc2C1=O	inactive: -2.74%
C[C@@H]1CN([C@H](C)CO)C(=O)Cc2cc(NC(=O)Nc3ccccc3)ccc2O[C@@H]1CN(C)Cc1ccc(-c2ccccc2)cc1	inconclusive: 56%
COc1ccc(CN(C)C[C@H]2Oc3ccc(NC(=O)Cc4ccccc4)cc3CC(=O)N([C@@H](C)CO)C[C@@H]2C)cc1	active: 71.7%
C[C@@H]1CN([C@@H](C)CO)C(=O)c2cccc(NS(=O)(=O)c3cn(C)cn3)c2O[C@@H]1CN(C)S(C)(=O)=O	inactive: -30.5%
C[C@H]1CN([C@@H](C)CO)C(=O)Cc2cc(NS(=O)(=O)c3ccc(F)cc3)ccc2O[C@@H]1CN(C)Cc1ccc(Cl)c(Cl)c1	inconclusive: 56.1%
COc1ccc(S(=O)(=O)Nc2ccc3c(c2)CC(=O)N([C@H](C)CO)C[C@@H](C)[C@@H](CN(C)S(=O)(=O)c2ccc(F)cc2)O3)cc1	active: 60.4%
COc1ccc(S(=O)(=O)Nc2ccc3c(c2)C(=O)N([C@@H](C)CO)C[C@H](C)[C@H](CN(C)Cc2ccc(C(F)(F)F)cc2)O3)cc1	inconclusive: 41.6%

A run of entries from the list above:
SMILES	activity score (inhibition)
C[C@@H]1CN([C@@H](C)CO)C(=O)Cc2cc(NC(=O)Nc3ccc(C(F)(F)F)cc3)ccc2O[C@@H]1CN(C)C(=O)Nc1cccc2ccccc12	inconclusive: 58.4%
C[C@@H]1CN([C@@H](C)CO)C(=O)c2cccc(NC(=O)Nc3ccc(C(F)(F)F)cc3)c2O[C@H]1CN(C)Cc1ccc(C(=O)Nc2ccccc2N)cc1	inconclusive: 56.6%

Remaining list, next part.

SMILES	activity score (inhibition)
COC(=O)CCCCCCC(=O)N/N=C/c1ccccc1Br	inactive: 4.39%
O=C(N/N=C/c1ccc(O)cc1O)c1ccccc1O	active: 67%
C[C@@H]1CCCCO[C@@H](CN(C)C(=O)Nc2ccccc2)[C@@H](C)CN([C@H](C)CO)C(=O)c2cc(NC(=O)Nc3ccc(F)cc3)ccc2O1	inactive: 7.86%
C[C@@H]1CN([C@H](C)CO)C(=O)c2cccc(NS(C)(=O)=O)c2O[C@H]1CN(C)Cc1ccc2c(c1)OCO2	inactive: -13.2%
C[C@H](CO)N1C[C@H](C)[C@H](CN(C)Cc2ccccc2)Oc2ncc(-c3ccccc3)cc2C1=O	inactive: -4.22%
COc1ccc(-c2cnc3c(c2)C(=O)N([C@H](C)CO)C[C@H](C)[C@H](CN(C)Cc2cccc(C(F)(F)F)c2)O3)cc1	inconclusive: 55%
C[C@@H]1CN([C@@H](C)CO)C(=O)Cc2cc(NC(=O)CCN3CCOCC3)ccc2O[C@@H]1CN(C)S(=O)(=O)c1cccs1	inactive: -15.8%
C[C@@H]1CN([C@H](C)CO)C(=O)Cc2cc(NC(=O)Nc3ccc(F)cc3)ccc2O[C@H]1CN(C)Cc1ccc(Oc2ccccc2)cc1	inconclusive: 59.8%
O=C(NO)c1cccc(C(=O)N/N=C/c2cc(Br)cs2)c1	inactive: -25.3%
Cc1ccc(S(=O)(=O)N(C)C[C@H]2Oc3ccc(NS(=O)(=O)c4ccc(Cl)cc4)cc3C(=O)N([C@@H](C)CO)C[C@@H]2C)cc1	inactive: 7.83%
COc1ccc(NC(=O)Nc2ccc3c(c2)C(=O)N([C@H](C)CO)C[C@H](C)[C@H](CN(C)CC2CCCCC2)OCCCC[C@@H](C)O3)cc1	inconclusive: 56%
C[C@@H]1CN([C@H](C)CO)C(=O)c2cc(NS(=O)(=O)c3ccccc3)ccc2O[C@@H]1CN(C)C(=O)Nc1cccc2ccccc12	inactive: -23.6%
C[C@H](CO)N1C[C@H](C)[C@H](CN(C)C(=O)Nc2ccc3c(c2)OCO3)Oc2ncc(-c3cccc(C(F)(F)F)c3)cc2C1=O	active: 67.3%
Cc1ccc(S(=O)(=O)N(C)C[C@@H]2Oc3ccc(NC(=O)Nc4ccc(C(F)(F)F)cc4)cc3CC(=O)N([C@@H](C)CO)C[C@@H]2C)cc1	inconclusive: 59.4%
COc1ccc(CN(C)C[C@H]2OCCCC[C@@H](C)Oc3ccc(NS(=O)(=O)c4ccc(Cl)cc4)cc3C(=O)N([C@H](C)CO)C[C@@H]2C)cc1	inconclusive: 55.7%
CC(C)NC(=O)Nc1ccc2c(c1)C(=O)N([C@@H](C)CO)C[C@H](C)[C@H](CN(C)Cc1ccc(C(=O)Nc3ccccc3N)cc1)O2	inconclusive: 58.5%
Cc1ccccc1/C=N/NC(=O)c1ccccc1O	inactive: -13.4%
C[C@@H]1CN([C@@H](C)CO)C(=O)c2cccc(NC(=O)Nc3ccc4c(c3)OCO4)c2O[C@@H]1CN(C)C(=O)NC1CCCCC1	inconclusive: 56.2%
COc1ccc(S(=O)(=O)Nc2cccc3c2O[C@H](CN(C)S(=O)(=O)c2cccs2)[C@H](C)CN([C@@H](C)CO)C3=O)cc1	inactive: 17.6%
C[C@H]1CN([C@@H](C)CO)C(=O)Cc2cc(NC(=O)Nc3cccc4ccccc34)ccc2O[C@@H]1CN(C)Cc1ccc2c(c1)OCO2	active: 64%

Grouped by structure: the compounds so far with bromine (two)
SMILES	activity score (inhibition)
COC(=O)CCCCCCC(=O)N/N=C/c1ccccc1Br	inactive: 4.39%
O=C(NO)c1cccc(C(=O)N/N=C/c2cc(Br)cs2)c1	inactive: -25.3%

The results go on:

SMILES	activity score (inhibition)
C[C@H](CO)N1C[C@H](C)[C@H](CN(C)Cc2ccc3c(c2)OCO3)Oc2c(NC(=O)Nc3ccc(C(F)(F)F)cc3)cccc2C1=O	active: 62.2%
C[C@@H]1CN([C@H](C)CO)C(=O)Cc2cc(NC(=O)Nc3ccccc3)ccc2O[C@@H]1CN(C)Cc1ccc(Oc2ccccc2)cc1	active: 72.1%
Cc1ccc(S(=O)(=O)Nc2cccc3c2O[C@@H](CN(C)Cc2ccc(-c4ccccc4)cc2)[C@@H](C)CN([C@H](C)CO)C3=O)cc1	inconclusive: 68.1%
C[C@@H]1CN([C@@H](C)CO)C(=O)Cc2cc(NC(=O)Nc3ccccc3)ccc2O[C@@H]1CN(C)Cc1ccc(C(=O)Nc2ccccc2N)cc1	inconclusive: 55.8%
C[C@@H]1CN([C@@H](C)CO)C(=O)c2cc(NC(=O)Nc3ccc(F)cc3)ccc2O[C@@H]1CN(C)S(=O)(=O)c1cccs1	inconclusive: 56.3%
C[C@H](CO)N1C[C@H](C)[C@@H](CN(C)S(=O)(=O)c2ccccc2)Oc2c(NC(=O)Nc3ccccc3)cccc2C1=O	active: 60.9%
C[C@H](CO)N1C[C@H](C)[C@H](CN(C)S(=O)(=O)c2ccc(F)cc2)Oc2ccc(N(C)C)cc2CC1=O	inactive: 9.09%
CN(C)c1ccc(/C=N/NC(=O)c2ccccc2O)cc1	inactive: -12%
COc1ccc(S(=O)(=O)Nc2ccc3c(c2)CC(=O)N([C@@H](C)CO)C[C@H](C)[C@@H](CN(C)CC2CCCCC2)O3)cc1	inconclusive: 60.2%
COc1ccc(/C=N/NC(=O)c2ccccn2)c(O)c1	inactive: 34.7%
C[C@@H]1CN([C@@H](C)CO)C(=O)c2cccc(NC(=O)NC3CCCCC3)c2O[C@H]1CN(C)Cc1ccc2c(c1)OCO2	inconclusive: 55.1%
Cc1noc(C)c1S(=O)(=O)Nc1ccc2c(c1)C(=O)N([C@H](C)CO)C[C@H](C)[C@H](CN(C)Cc1ccc(Cl)c(Cl)c1)O2	inconclusive: 44.3%
COc1ccc(S(=O)(=O)N(C)C[C@H]2OCCCC[C@@H](C)Oc3ccc(NC(=O)Nc4ccc(C(F)(F)F)cc4)cc3C(=O)N([C@H](C)CO)C[C@@H]2C)cc1	inconclusive: 56%
CNC[C@H]1Oc2c(NC(=O)Nc3ccc(F)cc3)cccc2C(=O)N([C@H](C)CO)C[C@H]1C	inactive: -39.8%
COc1ccc(S(=O)(=O)Nc2ccc3c(c2)C(=O)N([C@@H](C)CO)C[C@@H](C)[C@H](CN(C)C(=O)NC2CCCCC2)O3)cc1	inactive: -9.13%
C[C@H](CO)N1C[C@H](C)[C@@H](CN(C)CC2CCCC2)OCc2cn(nn2)CCCC1=O	inactive: -2%
C[C@H](CO)N1C[C@H](C)[C@@H](CN(C)Cc2ccc(Oc3ccccc3)cc2)Oc2c(NC(=O)Nc3ccc(C(F)(F)F)cc3)cccc2C1=O	inconclusive: 58.8%
C[C@H](CO)N1C[C@H](C)[C@@H](CN(C)S(=O)(=O)c2ccc(Cl)cc2)Oc2c(NS(=O)(=O)c3ccc(Cl)cc3)cccc2C1=O	inactive: 18.5%
C[C@H]1CN([C@@H](C)CO)C(=O)Cc2cc(NC(=O)NC3CCCCC3)ccc2O[C@@H]1CN(C)Cc1ccc(Cl)c(Cl)c1	active: 65.4%
CCCN(C)C[C@@H]1Oc2ncc(-c3cc4ccccc4o3)cc2C(=O)N([C@H](C)CO)C[C@@H]1C	inconclusive: 55.2%
